In patent publication US5716950A, “Diazacycloalkanealkylsulfonamide derivatives” (Nippon Shoji Kabushiki Kaisha, priority 1994, dated 1998):
At least one compound was matched to its structure with a doubt left.

What was measured:
[1] = test system: extracted ileum (histamine contraction); assay: Antihistaminic activity: suppression of histamine-induced contraction of extracted ileum; parameters: species or system Female Hartley guinea pig; conditions: histamine 3×10^-7 M; guinea pig ileum; 50% suppression of contraction; read-out: anti-His in extracted ileum EC50
Method: Female Hartley guinea pig (weighing 500 to 650 g) were sacrificed and the ileum (length of about 10 to 25 cm) was extracted from the ileocecum to prepare a specimen (length of 3 cm). […] After allowing to stand for 60 minutes to make the specimen stable, a histamine (3×10^-7 M) was applied to the specimen at single application. Contraction of the specimen was determined and recorded using isotonic transducer. After repeating application of a histamine to make the contraction constant, a diluted solution of the test compound was applied. Three minutes after the application, a histamine was then added and an activity of suppressing contraction was examined.

[2] = test system: mouse biphasic allergic dermal reaction; assay: Mouse Biphasic Allergic Dermal Reaction; type: in vivo, Female Balb/c mice; conditions: edema after 24 hours
Method: Female Balb/c mice (weighing 18 to 25 g) were subjected to passive sensitization by intravenous administration of 1 ml of anti-DNP monoclonal IgE antibody showing 1:1024 of antibody titer. 24 hours after the sensitization, 25 μl of 0.15% dinitrofluorobenzene (DNFB) were applied to both sides of right and left auricles of mouse for inducing allergic reactions. Thickness of auricles were measured using Dial Thickness Gauge before the challenge with DNFB, and 1 and 24 hours after the challenge. And then, increase in thickness of auricles at 1 hour after the challenge (edema caused by immediate allergic reaction) and that at 24 hours after the challenge (edema caused by late allergic reaction) were calculated against the thickness of auricles before the challenge with DNFB, respectively.
Suppression rate was expressed by relative ratio (%) to the value in control in which a solvent was administered.
Test compounds, diphenhydramine which is a existing classical antihistamic drug, amlexanox which is an antiallergic drug and dexamethasone which is a steroidal drug were administered orally (partly intraperitoneally) once before antigen challenge.
The above test was performed by using a mouse biphasic allergic dermal reaction model which was a new model [see, Sakurai T, Inagaki, N. and Nagai, H Life Sci., 54, PL291-295 (1994)]. […]

**Q.** For `NS(=O)(=O)CCCCCCN1CCN(C(c2ccccc2)c2ccc(Cl)cc2)CC1` (centres unmarked) [Example 153, potassium 6-[[4-(4-chlorophenyl)phenylmethyl]-1-piperazinyl]hexylsulfonamide], which EC50 [1] is on record?
**A.** 2.6 µM

**Q.** What about the “suppression of the late allergic reaction (in words)” value [2] of the same compound?
**A.** showed strong activity of suppressing the late allergic reaction
